# Target: T1, TvaCA1 (Trichomonas vaginalis, UniProt A2ENQ8)
# By UniProt entry, the sequences of proteins in these tests, tags left out. Residues count along the entry.
# UniProt A2ENQ8, 1-182: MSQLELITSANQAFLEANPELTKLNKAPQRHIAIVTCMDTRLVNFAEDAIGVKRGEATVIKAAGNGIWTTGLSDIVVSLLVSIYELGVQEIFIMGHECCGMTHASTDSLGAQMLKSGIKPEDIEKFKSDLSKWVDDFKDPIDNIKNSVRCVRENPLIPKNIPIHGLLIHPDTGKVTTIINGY
# T1 construct: gene TVAG_005270
# Experiment: biochemical
structure (smiles),measurement,value
"CC(=O)Nc1nnc(S(N)(=O)=O)s1 [AAZ, acetazolamide]",Ki,391 nM

# Reference: article PMC7717681, “Biochemical and structural characterisation of a protozoan beta-carbonic anhydrase from Trichomonas vaginalis” (Journal of Enzyme Inhibition and Medicinal Chemistry, 2020)
